# Measured values as given in PubChem BioAssay AID651768 (National Center for Advancing Translational Sciences (NCATS), 2012).
# Amino acid sequences for entries named in this document (tags omitted).
# UniProt Q14191, whole entry, looked up: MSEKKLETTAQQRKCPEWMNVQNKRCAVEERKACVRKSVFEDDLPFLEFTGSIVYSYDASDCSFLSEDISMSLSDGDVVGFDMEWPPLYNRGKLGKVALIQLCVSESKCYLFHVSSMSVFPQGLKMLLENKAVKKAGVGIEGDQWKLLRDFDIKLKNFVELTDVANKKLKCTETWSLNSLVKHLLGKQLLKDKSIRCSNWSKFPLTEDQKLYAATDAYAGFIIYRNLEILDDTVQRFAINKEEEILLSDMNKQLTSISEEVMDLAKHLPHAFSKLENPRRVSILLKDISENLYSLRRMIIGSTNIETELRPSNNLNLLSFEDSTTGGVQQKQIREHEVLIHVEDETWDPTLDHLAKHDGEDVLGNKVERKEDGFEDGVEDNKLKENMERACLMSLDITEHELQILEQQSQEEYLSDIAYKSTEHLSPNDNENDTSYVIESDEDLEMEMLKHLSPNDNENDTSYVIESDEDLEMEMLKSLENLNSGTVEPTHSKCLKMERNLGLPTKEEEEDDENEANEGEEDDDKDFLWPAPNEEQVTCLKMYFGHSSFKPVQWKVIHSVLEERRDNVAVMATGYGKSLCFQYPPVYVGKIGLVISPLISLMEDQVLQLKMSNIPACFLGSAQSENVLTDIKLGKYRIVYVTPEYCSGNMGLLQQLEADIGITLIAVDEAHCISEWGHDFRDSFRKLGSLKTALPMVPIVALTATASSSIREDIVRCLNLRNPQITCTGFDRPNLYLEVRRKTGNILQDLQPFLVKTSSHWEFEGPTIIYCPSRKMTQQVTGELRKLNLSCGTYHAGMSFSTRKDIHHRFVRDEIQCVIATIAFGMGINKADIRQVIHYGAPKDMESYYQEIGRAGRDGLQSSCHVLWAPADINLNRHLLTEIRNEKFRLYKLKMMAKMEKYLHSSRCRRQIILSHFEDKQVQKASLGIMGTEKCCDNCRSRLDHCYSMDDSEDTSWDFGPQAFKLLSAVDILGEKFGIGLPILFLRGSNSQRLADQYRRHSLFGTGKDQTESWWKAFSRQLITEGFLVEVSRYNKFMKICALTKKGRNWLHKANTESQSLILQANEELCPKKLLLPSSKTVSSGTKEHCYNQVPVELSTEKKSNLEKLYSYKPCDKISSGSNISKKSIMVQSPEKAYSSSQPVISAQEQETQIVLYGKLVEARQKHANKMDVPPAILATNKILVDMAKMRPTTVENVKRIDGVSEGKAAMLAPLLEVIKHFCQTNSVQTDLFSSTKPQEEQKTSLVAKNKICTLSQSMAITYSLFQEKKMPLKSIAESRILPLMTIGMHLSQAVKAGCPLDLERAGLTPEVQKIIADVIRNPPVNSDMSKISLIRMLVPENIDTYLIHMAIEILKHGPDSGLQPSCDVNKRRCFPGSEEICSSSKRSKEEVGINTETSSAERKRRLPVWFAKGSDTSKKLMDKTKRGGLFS
# Values joined by “and” are separate entries in the source; they are usually repeats but may differ in a detail not shown here. Identical values can stand only once. In all, about 360,000 compounds went through this assay and about 1,700 (0.47%) were called active. Inconclusive means that the source gave no clear call. Such entries were picked first, then a sample of the others. Calls come from the whole dose curve; as a rule, active = well fitted inhibition curve with a large enough effect; inconclusive = small, poorly fitted or top-dose-only effect; inactive = no such curve, though single readings can be large or run the other way. Potencies beside an inconclusive call are fits to weak or partial responses and may not hold up.
# Biological target: Bifunctional 3'-5' exonuclease/ATP-dependent helicase WRN (Homo sapiens) (UniProt Q14191)
# Test: qHTS for Inhibitors of WRN Helicase; note: nearly all actives have a fitted effect of over 55% in size
# Settings: WRN helicase unwinding, fluorescent forked duplex, kinetic; activity change, negative = inhibition: at 114 µM (top of the series) unless noted
# From the text: Inhibition of DNA repair is proposed as a strategy for combating cancer. Synthetic lethality is an approach that exploits preexisting DNA repair deficiencies in certain tumors to develop inhibitors of DNA repair pathways that compensate for the tumor-associated DNA repair deficiency. Because helicases play critical roles in the DNA damage response and in DNA repair, particularly in actively dividing and replicating cells, characterization of synthetic lethal relationships of DNA helicases may be of value in developing improved anticancer treatment strategies; moreover, small molecules that specifically target a given DNA helicase may be useful for understanding its role in cellular nucleic acid metabolism. The goal of this project is to identify small molecule, non-covalent chemical inhibitors of the Werner syndrome (WS) helicase (WRN), which plays an important role in cell proliferation, the replication stress response, and DNA repair. […] The WRN gene product that is defective in the chromosomal instability disorder has DNA helicase and exonuclease activities and interacts with a number of nuclear proteins to maintain genomic stability. We will employ an optimized high-throughput screening assay that utilizes a fluorescence intensity modulation scheme with a fluorophore and quencher positioned near one another within a duplex deoxyoligonucleotide that contains a single forked structure. After a high-throughput screen of the ~350,000-member Molecular Libraries Small Molecule Repository (MLSMR) collection, followed by data analysis and hit selection, a panel of confirmatory, as well as secondary and ternary, assays will be employed to identify high-confidence WRN inhibitors. Structure-activity relationships will be investigated for the top candidate inhibitor series through medchem expansion. These are the results of the primary screening campaign against the MLSMR. NIH Chemical Genomics Center [NCGC] NIH Molecular Libraries Probe Centers Network [MLPCN] MLPCN Grant: MH096530 Assay Submitter (PI): Robert Brosh, National Institute of Aging
# Three muL of reagents (buffer in columns 3 and 4 as negative controls; WRN at 20 nM final concentration in columns 1 and 2 as positive controls; columns 5-48 as test reactions) will be dispensed into a 1536-well Greiner black plate via solenoid-valve based nanoliter dispensers. Compounds (23 nL each in columns 5-48) and control (23 nL each in column 2 as dose-response) will be transferred via a Kalypsys pintool equipped with a 1536-pin array. Plates will be incubated for 15 min at room temperature, and then 1 µL of substrate (100 nM forked duplex oligonucleotide and 2 mM ATP final concentrations) will be added to start reaction, and plate will be transferred into a ViewLux high-throughput CCD imager where reaction progress is measured in kinetic mode using standard red-fluorescence optics (excitation filter 525 nm, emission filter 598 nm).
# % is set by controls: 0 for no effect and ±100 for the full control effect; potency is the fitted concentration of half-maximal effect.
SMILES,Potency,"activity change, negative = inhibition"
CC(=O)N1CCN(C(=S)c2ccc(-c3ccc(Cl)cc3)o2)CC1,"inconclusive: 100 µM [inhibitor, partial curve, poor fit]",–
CCOC(=O)C(=Cc1ccc(OCc2ccc([N+](=O)[O-])cc2)c(OC)c1)C(=O)OCC,–,inactive: -16.9%
COc1ccc(/C=N/Nc2nn3cnnc3c3ccccc23)cc1,"inconclusive: 7.94 µM [inhibitor, full curve]",–
CC(NC(=O)Cn1ccsc1=N)C12CC3CC(CC(C3)C1)C2 (centres undefined),–,inactive: 4.46%
COc1cc(/C=C2/CCC/C(=C\c3cc(O)c(OC)c(Cl)c3)C2=O)cc(Cl)c1O,"inconclusive: 50.1 µM [inhibitor, partial curve]",–
CCc1ccc(OCC(=O)NNC(=O)c2ccc(NC(=O)C3CC3)cc2)cc1,–,inactive: -34.8%
Cc1[nH][nH]c(=O)c1C(c1ccc(-c2ccc(C(=O)O)cc2)o1)c1c(C)[nH][nH]c1=O,"inconclusive: 0.134 µM [inhibitor, full curve]",–
CCC1(C)Cc2c(sc3[nH]c(=S)[nH]c(=S)c23)CO1 (centres undefined),–,inactive: 8.68%
Cc1ccc2sc(C)[n+](CCO)c2c1,"inconclusive: 39.8 µM [inhibitor, single point]",–
COc1ccc(S(=O)(=O)N2CCOC2CNC(=O)C(=O)NCc2ccccc2Cl)cc1 (centres undefined),–,inactive: -35.2%
COc1ccc(-c2csc(NC(=O)CSc3nc(C)nc4sc(C(=O)O)c(C)c34)n2)cc1,"inconclusive: 63.1 µM [inhibitor, partial curve, poor fit]",–
COc1cc(NC(=O)c2ccccn2)cc(OC)c1OC,–,inactive: 3.95%
C[C@@H]1NC(=O)[C@H](CCC(N)=O)NC(=O)c2cc([N+](=O)[O-])cc(I)c2NCC[C@@H](C(N)=O)NC1=O,–,inactive: -3.41%
COc1ccc(S(=O)(=O)N/N=C(/C)c2ccncc2)c(OC)c1,–,inactive: 2.62%
Cc1ccc2nc(/C(C#N)=C/c3ccc(-c4cccc([N+](=O)[O-])c4)o3)[nH]c2c1,"inconclusive: 22.4 µM [inhibitor, full curve]",–
CSc1ccc(/C=C/C(=O)c2ccc(NC(C)=O)cc2)cc1,"inconclusive: 56.2 µM [inhibitor, partial curve]",–
O=C(COc1c(Br)cc(Br)c2cccnc12)Nc1ccccc1F,–,inactive: -6.8%
Cc1ccc(C(=O)Nc2ccc(C(=O)N/N=C/c3cccnc3)cc2)cc1,–,inactive: -13.8% [at 11.6 µM]
CCN1/C(=C/C(C)=C/c2sc3ccccc3[n+]2CC)Sc2ccccc21,active: 44.7 µM and active: 17.8 µM,–
O=C(NNC(=O)c1cc2cc3ccccc3nc2s1)c1cccc(Cl)c1,"inconclusive: 56.2 µM [inhibitor, partial curve]",–
O=C(CSc1ccc(-c2ccco2)nn1)c1ccccc1,"inconclusive: 35.5 µM [inhibitor, single point]",–
CC(C)(C)C(=O)c1sc2nc(-c3cccs3)cc(C(F)(F)F)c2c1N,active: 100 µM,–
CCCCC1(C)OC(=O)C(=Cc2ccc(-c3ccc(Cl)c(C(=O)O)c3)o2)C(=O)O1 (centres undefined),"inconclusive: 2.99 µM [inhibitor, partial curve]",–

SMILES,Potency,"activity change, negative = inhibition"
Cn1cnc([N+](=O)[O-])c1S(=O)(=O)Oc1ccccc1,"inconclusive: 56.2 µM [inhibitor, partial curve]",–
O=C(CSc1nnc(COc2ccccc2)n1Cc1ccco1)NCc1ccco1,"inconclusive: 21.2 µM [inhibitor, partial curve]",–
CC(OC(=O)c1ccc2c(c1)C(=O)N(Cc1ccncc1)C2=O)C(=O)Nc1cccc(Cl)c1Cl (centres undefined),–,inactive: -7.25%
CN(C)C(=O)Nc1ccccc1CC[N+](=O)[O-],–,inactive: -28.3%
COc1cc(/C=C2\C(=O)NN(c3ccc(C)cc3)C2=O)cc([N+](=O)[O-])c1O,"inconclusive: 50.1 µM [inhibitor, partial curve]",–
CNC(=S)N/N=C/c1ccc(C(C)C)cc1,"inconclusive: 56.2 µM [inhibitor, partial curve]",–
Nc1ccc2nc(-c3ccccc3)cnc2c1,"inconclusive: 6.31 µM [inhibitor, full curve, poor fit]",–
Cc1ccc(-c2csc(NC(=O)c3cccc(C)c3)c2C(=O)O)cc1,"inconclusive: 39.8 µM [inhibitor, partial curve]",–
COc1cc(C(=O)Nc2ccc(C#N)cc2)c([N+](=O)[O-])cc1OC,"inconclusive: 28.2 µM [inhibitor, single point]",–
CC(=O)Nc1ccc(S(=O)(=O)NCCC(=O)N2CCN(C(c3ccccc3)c3ccccc3)CC2)cc1,"inconclusive: 39.8 µM [inhibitor, full curve, poor fit]",–
COc1ccc2c(c1)c(=Cc1ccc(N(C)C)cc1)c1cc(-c3ccccc3)[n+](C)n12,active: 28.2 µM,–
Cc1ccc(C(=O)NCC(=O)OCC(=O)NC2CCS(=O)(=O)C2)cc1C (centres undefined),"inconclusive: 28.2 µM [inhibitor, single point]",–
Cc1ccc2c3c(cccc13)-c1ccccc1C2=O,–,inactive: -26.7% [at 57.1 µM]
O=C(CSc1cccc[n+]1[O-])Nc1cc2c(cc1Cl)C(=O)c1ccccc1C2=O,"inconclusive: 14.1 µM [inhibitor, partial curve]",–
CN(CC(=O)Nc1ccc(F)cc1)C(=O)CN1C(=O)NC2(CCCC2)C1=O,"inconclusive: 17.8 µM [inhibitor, full curve, poor fit]",–
O=C(O)C1Nc2c(O)cc(Cl)c([N+](=O)[O-])c2C2C=CCC12 (centres undefined),active: 5.01 µM,–
CCOC(=O)c1cnc(-n2nc(C)cc2C)nc1NNc1ncc(-c2ccccc2)cn1,"inconclusive: 3.55 µM [inhibitor, full curve, poor fit]",–
Cc1cc2nc3ccc(N(C)C)cc3nc2cc1N,active: 50.1 µM,–
CC1(C)CC(=O)C2=C(C1)OC(N)=C(C#N)C2C#Cc1ccccc1 (centres undefined),–,inactive: -10.9% [at 57.1 µM]
CC1CCc2c(sc3nc(CN4CCOCC4)nc(NS(=O)(=O)c4cccc([N+](=O)[O-])c4)c23)C1 (centres undefined),"inconclusive: 35.5 µM [inhibitor, full curve]",–
CN(C)c1ccc(/C=C(/NC(=O)c2ccccc2)C(=O)N/N=C/c2ccc([N+](=O)[O-])c(O)c2)cc1,"inconclusive: 35.5 µM [inhibitor, partial curve]",–
CCc1nnc(SCC(=O)Nc2nnc(C)s2)n1CC1CCCO1 (centres undefined),"inconclusive: 79.4 µM [inhibitor, single point]",–
O=C(O)c1ccc2cccnc2n1,"inconclusive: 22.4 µM [inhibitor, single point]",–

SMILES,Potency,"activity change, negative = inhibition"
Cc1ccc(S(=O)(=O)NC[C@H]2O[C@@H](n3cnc4c(N)ncnc43)[C@H](O)[C@@H]2O)cc1,–,inactive: -7.25%
CN1/C(=C/C=C/c2n(C)c3cc([N+](=O)[O-])c([N+](=O)[O-])cc3[n+]2C)C(C)(C)c2ccccc21,"inconclusive: 50.1 µM [inhibitor, partial curve]",–
O=C(O)CCCN1C(=O)/C(=C\C(Cl)=C\c2ccccc2)SC1=S,"inconclusive: 2.67 µM [inhibitor, partial curve]",–
Cc1ccc(-c2cc(C(F)(F)F)c(C#N)c(=O)[nH]2)cc1,"inconclusive: 70.8 µM [inhibitor, single point]",–
O=[N+]([O-])c1cc(CN(CCO)CCO)ccc1O,–,inactive: -31.1%
CCOc1ccc(NCc2nc3ccccc3n2CCOc2ccccc2)cc1,"inconclusive: 89.1 µM [inhibitor, partial curve, poor fit]",–
CCOC(=O)/C=C/[C@H]1CCc2cccc(Cl)c2O1,–,inactive: -6.75%
O=C(NCc1ccccn1)C1CC(c2ccc(Cl)c(Cl)c2)=NO1 (centres undefined),–,inactive: -2.48% [at 57.1 µM]
CCN(CC)c1ccc(NC(=O)CSC(=O)c2ccccc2)cc1,"inconclusive: 20 µM [inhibitor, single point]",–
N#CC(C#N)=C(N)/C(C#N)=C/c1cc(O)c(O)c(O)c1,"inconclusive: 2.67 µM [inhibitor, partial curve]",–
Cc1cccc(OCCSc2nc(N)cc(N)n2)c1,–,inactive: 7.87%
Cc1cc(C(=O)CSc2nnc(-c3ccco3)o2)c(C)n1Cc1ccco1,"inconclusive: 56.2 µM [inhibitor, partial curve]",–
CN(C)C(CNC(=O)C1CCCN1C(=O)c1cccs1)c1ccccc1 (centres undefined),–,inactive: 2.89%
Nc1ccc2nc(-c3cccc(-c4nc5ccc(N)cc5[nH]4)n3)[nH]c2c1,active: 20 µM,–
O=[N+]([O-])c1ccc(NN=Cc2cc(Br)ccc2O)nc1,–,inconclusive: -44% [inhibitor]
O=C(Cc1ccc(F)cc1)NC(Cc1c[nH]c2ccccc12)C(=O)O (centres undefined),–,inactive: -9.61%
COc1ccc(C(=O)/C=C/c2cc(C(=O)O)cc3c2OCOC3)c(O)c1,"inconclusive: 50.1 µM [inhibitor, partial curve]",–
Cc1cccnc1NC(=O)C1CCCN1S(=O)(=O)c1ccc(Cl)cc1 (centres undefined),"inconclusive: 35.5 µM [inhibitor, full curve]",–
Cc1ccc(NC(=O)/C(=C\c2ccco2)NC(=O)c2ccco2)cc1,–,inactive: 5.32% [at 57.1 µM]
O=[N+]([O-])c1c(NCCO)cc(Sc2nc3ccccc3s2)c2nonc12,"inconclusive: 70.8 µM [inhibitor, single point]",–
CCOc1ccc(C(=O)N/N=C/c2ccc(-c3ccc(S(=O)(=O)Nc4ncccn4)cc3)o2)cc1,"inconclusive: 50.1 µM [inhibitor, partial curve]",–
COC(=O)CCC(=O)OC1(C)C(=O)C2=COC(c3ccc(OC)cc3)=CC2=C(Br)C1=O (centres undefined),"inconclusive: 56.2 µM [inhibitor, partial curve]",–
Cc1cc(C)n2nc(C(=O)OCC(=O)c3cc(C)n(C)c3C)nc2n1,"inconclusive: 15 µM [inhibitor, partial curve]",–
